Values from PubChem BioAssay AID1259308 (NCATS, 2017).
This is a random part of about 59,000 reagents tested. About 1,510 of them (2.6%) were called active. 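Calls use total luciferase alone and ignore viability, so some active siRNAs may act by altering cell number.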 A number with no mark means an inactive call. The numbers tell different reagents against one gene apart. Not all columns of the deposit are shown. Reagent sequences are not shown.

Purpose: 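Knock-downs that increase output of a recombinant reporter protein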 (primary screen)
System: human HEK293 embryonic kidney cells stably expressing firefly luciferase (HEK-CMV-Luc2-Hygro)
Reagents: single siRNA against human genes, 0.8 pmol siRNA per well
Duration: 72 h
Detection: 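Luciferase light (ONE-Glo) measured on one replicate plate set and viability (CellTiter-Glo) on the other, scaled to a negative control siRNA, with robust z-scores and luciferase per cell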
Scale: total luciferase, z-score: higher = more reporter protein produced
Active means: 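An siRNA counts as active if its total luciferase robust z-score exceeds 3; genes with two or more such siRNAs out of three were retested with fresh siRNAs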
Meaning of the calls: active = raised luciferase; inactive = no rise

PPP2R3A (protein phosphatase 2 regulatory subunit B''alpha) #1 | total luciferase, z-score = 2.81
PPP2R3A (protein phosphatase 2 regulatory subunit B''alpha) #2 | total luciferase, z-score = 0.00507
PPP2R3A (protein phosphatase 2 regulatory subunit B''alpha) #3 | total luciferase, z-score = 1.23
CYC1 (cytochrome c1) #1 | total luciferase, z-score = -2.09
CYC1 (cytochrome c1) #2 | total luciferase, z-score = -2.35
CYC1 (cytochrome c1) #3 | total luciferase, z-score = -0.416
FILIP1 (filamin A interacting protein 1) #1 | total luciferase, z-score = -1.27
FILIP1 (filamin A interacting protein 1) #2 | total luciferase, z-score = -0.298
FILIP1 (filamin A interacting protein 1) #3 | total luciferase, z-score = 0.0824
ZNF646 (zinc finger protein 646) #1 | total luciferase, z-score = 0.915
ZNF646 (zinc finger protein 646) #2 | total luciferase, z-score = -0.264
ZNF646 (zinc finger protein 646) #3 | total luciferase, z-score = 0.903
PMP22 (peripheral myelin protein 22) #1 | total luciferase, z-score = 3.08 (active)
PMP22 (peripheral myelin protein 22) #2 | total luciferase, z-score = 2.05
PMP22 (peripheral myelin protein 22) #3 | total luciferase, z-score = -0.831
ENDOV (endonuclease V) #1 | total luciferase, z-score = -0.746
ENDOV (endonuclease V) #2 | total luciferase, z-score = -0.236
ENDOV (endonuclease V) #3 | total luciferase, z-score = 1.38
CBX5 (chromobox 5) #1 | total luciferase, z-score = -0.228
CBX5 (chromobox 5) #2 | total luciferase, z-score = 0.0889
CBX5 (chromobox 5) #3 | total luciferase, z-score = -1.76

2 entries from above, ordered by “total luciferase, z-score”, low to high.
ENDOV (endonuclease V) #1 | total luciferase, z-score = -0.746
ENDOV (endonuclease V) #2 | total luciferase, z-score = -0.236
